PubChem BioAssay AID1508597, Cure First, 2020

- Test: 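Genes whose silencing sensitises or protects ovarian cancer cells against rucaparib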 (primary screen)
- System: human ovarian carcinoma lines grown from tumours: OCI-P5x (papillary serous) and OCI-C5x (clear cell)
- Knock-down reagent: siRNA pool against human genes, 1.25 pmol siRNA per well
- Duration: 72 h or 96 h, depending on the cell culture
- Treatment: rucaparib 20 µM (about IC30) or vehicle, present until read-out
- Rucaparib or vehicle: Vehicle
- Cell line: OCI-C5x (clear cell)
- Measured: 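ATP luminescence measured at 72 or 96 h according to the culture, then normalised and expressed as percent viability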
- Reading the numbers: viability, normalised: higher = more viable cells remaining
- Active means: 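Active when normalised viability falls below 80 percent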
- Meaning of the calls: active = viability under 80%; inactive = viability 80% or more
Shown is an unselected part of the about 2,100 reagents, under one of the conditions tested. 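Calls flag viability under 80% in either arm, not effects specific to rucaparib; the reference for percent is not stated.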 No sequences are given here. The record does not give: the 100% reference.

For MED19, technical replicate 1, what was measured?
viability, normalised (%): 32; Outcome: active

What is on record for MED19, technical replicate 2?
viability, normalised (%): 24.3; Outcome: active

How did the screen score MED19, technical replicate 3?
viability, normalised (%): 45.7; Outcome: active

How did the screen score SRC, technical replicate 1?
viability, normalised (%): 80.2; Outcome: inactive

For SRC, technical replicate 2, what does the deposit list?
viability, normalised (%): 71.3; Outcome: active

For SRC, technical replicate 3, how do the results read?
viability, normalised (%): 57; Outcome: active

For USP21, technical replicate 1, what was measured?
viability, normalised (%): 65.1; Outcome: active

How did the screen score USP21, technical replicate 2?
viability, normalised (%): 66.2; Outcome: active

What is on record for USP21, technical replicate 3?
viability, normalised (%): 60.8; Outcome: active

Which result is listed for ACVR1C, technical replicate 1?
viability, normalised (%): 90.2; Outcome: inactive

How did the screen score ACVR1C, technical replicate 2?
viability, normalised (%): 73.1; Outcome: active

For ACVR1C, technical replicate 3, what was measured?
viability, normalised (%): 84.7; Outcome: inactive

As entered above:
SRC, technical replicate 3, Outcome = active
USP21, technical replicate 1, Outcome: active
For “Outcome”, USP21, technical replicate 2 shows active

More entries:
What did the screen give for ZDHHC3, technical replicate 1?
viability, normalised (%): 46.1; Outcome: active

For ZDHHC3, technical replicate 2, how do the results read?
viability, normalised (%): 38.3; Outcome: active

What is on record for ZDHHC3, technical replicate 3?
viability, normalised (%): 38.6; Outcome: active

What is on record for ARID3A, technical replicate 1?
viability, normalised (%): 55; Outcome: active

How did the screen score ARID3A, technical replicate 2?
viability, normalised (%): 60.1; Outcome: active

What did the screen give for ARID3A, technical replicate 3?
viability, normalised (%): 56.6; Outcome: active

How did the screen score PASK, technical replicate 1?
viability, normalised (%): 53.6; Outcome: active

What is on record for PASK, technical replicate 2?
viability, normalised (%): 42.5; Outcome: active

Which result is listed for PASK, technical replicate 3?
viability, normalised (%): 49.4; Outcome: active

With WRNIP1, technical replicate 1, what does the deposit list?
viability, normalised (%): 42.4; Outcome: active

What is on record for WRNIP1, technical replicate 2?
viability, normalised (%): 52.7; Outcome: active

For WRNIP1, technical replicate 3, how do the results read?
viability, normalised (%): 43; Outcome: active

With SCYL3, technical replicate 1, what does the deposit list?
viability, normalised (%): 64.1; Outcome: active

For SCYL3, technical replicate 2, what does the deposit list?
viability, normalised (%): 69.1; Outcome: active

Which result is listed for SCYL3, technical replicate 3?
viability, normalised (%): 57.5; Outcome: active

Which result is listed for MED27, technical replicate 1?
viability, normalised (%): 50.8; Outcome: active

What did the screen give for MED27, technical replicate 2?
viability, normalised (%): 36.5; Outcome: active

What did the screen give for MED27, technical replicate 3?
viability, normalised (%): 73.5; Outcome: active

For RAD51C, technical replicate 1, what was measured?
viability, normalised (%): 54.4; Outcome: active

For RAD51C, technical replicate 2, how do the results read?
viability, normalised (%): 50.1; Outcome: active

For RAD51C, technical replicate 3, what was measured?
viability, normalised (%): 49.6; Outcome: active
